# Laboratory results: the supplement of paper PMC10663445
# Where a name gives a salt, the structure may show the parent alone. Some of the results follow. Single values are uncertain, as repeats are few or missing.
# Test system: hsa-miR-132-3p
# Assay: miR-132-3p level in NGN2-iNs after compound treatment (TMM-normalised, ComBat batch-corrected) (batch-corrected normalised expression (arbitrary units)); higher = higher miR-132-3p expression
# Details: 10 µM; 24 h; human iPSC-derived NGN2 neurons (BR43)
row,Compound,miR-132-3p level in NGN2-iNs
1,CCCCCCNC(=O)n1cc(F)c(=O)[nH]c1=O [Carmofur],0.0735
2,Cc1nc(C(=O)NCC(=O)O)c(O)c2ccc(Oc3ccccc3)cc12 [Roxadustat (FG-4592)],-0.259
3,COc1cccc2c1C(=O)c1c(O)c3c(c(O)c1C2=O)C[C@@](O)(C(=O)CO)C[C@@H]3O[C@H]1C[C@H](N)[C@H](O[C@@H]2CCCCO2)[C@H](C)O1 [Pirarubicin],0.187
4,CC#C[C@]1(O)CC[C@H]2[C@@H]3CCC4=CC(=O)CCC4=C3[C@@H](c3ccc(N(C)C)cc3)C[C@@]21C [Mifepristone],-1.19
5,COC(=O)N[C@@H](C)CNc1nccc(-c2cn(C(C)C)nc2-c2cc(Cl)cc(NS(C)(=O)=O)c2F)n1 [Encorafenib (LGX818)],-0.493
6,CC[C@@H]1C(=O)N(C)c2cnc(Nc3ccc(C(=O)N[C@H]4CC[C@H](N5CCN(CC6CC6)CC5)CC4)cc3OC)nc2N1C(C)C [Volasertib (BI 6727)],-0.897
7,CCc1cccc(CC)c1NC(=O)N1Cc2[nH]nc(NC(=O)c3ccc(N4CCN(C)CC4)cc3)c2C1,0.699
8,Nc1nc(=O)n([C@@H]2CS[C@H](CO)O2)cc1F [Emtricitabine],0.409
9,COc1ccc(Cl)cc1C(=O)NCCc1ccc(S(=O)(=O)NC(=O)NC2CCCCC2)cc1 [Glyburide (Glibenclamide)],-1
10,C[C@@H]1C/C=C/C=C/C=C/C=C/[C@H](O[C@@H]2O[C@H](C)[C@@H](O)[C@H](N)[C@@H]2O)C[C@@H]2O[C@](O)(C[C@@H](O)C[C@H]3O[C@@H]3/C=C/C(=O)O1)C[C@H](O)[C@H]2C(=O)O [Natamycin],0.233
11,CC(C(O)c1ccc(O)cc1)N1CCC(Cc2ccccc2)CC1 (stereo not given) [Ifenprodil Tartrate],-0.579
12,CCn1c(=O)c2c(nc(/C=C/c3ccc(OC)c(OC)c3)n2C)n(CC)c1=O [Istradefylline],1.23
13,CC(C)(Oc1ccc(Cl)cc1)C(=O)OCCOC(=O)c1cccnc1 [Etofibrate],0.0675
14,Cc1cc(C)nc(NS(=O)(=O)c2ccc(N)cc2)n1 [Sulfamethazine],-0.106
15,CC1(C)O[C@@H]2C[C@H]3[C@@H]4C[C@H](F)C5=CC(=O)C=C[C@]5(C)[C@@]4(F)[C@@H](O)C[C@]3(C)[C@]2(C(=O)CO)O1 [Fluocinolone Acetonide],1.22
16,CC(C)[C@H](N)C(=O)OCCOCn1cnc2c(=O)nc(N)[nH]c21 [Valaciclovir HCl],0.29
17,CC(C)N(CC[C@H](c1ccccc1)c1cc(CO)ccc1O)C(C)C,1.47
18,CC(C)(C)c1cc(NC(=O)Nc2ccc(-c3cn4c(n3)sc3cc(OCCN5CCOCC5)ccc34)cc2)no1 [Quizartinib (AC220)],1.01
19,CC1(C)Cc2c(-c3ccccc3)c(-c3ccc(Cl)cc3)c(CC(=O)O)n2C1 [Licofelone (ML3000)],-0.414
20,O=C(/C=C/c1cccc(S(=O)(=O)Nc2ccccc2)c1)NO [Belinostat (PXD101)],0.686
21,CC#CCn1c(N2CCC[C@@H](N)C2)nc2c1c(=O)n(Cc1nc(C)c3ccccc3n1)c(=O)n2C [Linagliptin],-0.828
22,CCN(CC)CCOCCOC(=O)C1(c2ccccc2)CCCC1 [Pentoxyverine Citrate],0.253
23,Cc1cc(C(C)(C)C)cc(C)c1CC1=NCCN1 [Xylometazoline HCl],-0.799
24,COc1cc(NC(=O)c2ccccn2)ccc1Cl,-0.477
25,CC(C)(CO)[C@@H](O)C(=O)NCCC(=O)O [D-Pantothenic acid],-0.532

# Given as tab-separated lines: entries from further up
row	Compound	miR-132-3p level in NGN2-iNs
20	O=C(/C=C/c1cccc(S(=O)(=O)Nc2ccccc2)c1)NO [Belinostat (PXD101)]	0.686
21	CC#CCn1c(N2CCC[C@@H](N)C2)nc2c1c(=O)n(Cc1nc(C)c3ccccc3n1)c(=O)n2C [Linagliptin]	-0.828
22	CCN(CC)CCOCCOC(=O)C1(c2ccccc2)CCCC1 [Pentoxyverine Citrate]	0.253
23	Cc1cc(C(C)(C)C)cc(C)c1CC1=NCCN1 [Xylometazoline HCl]	-0.799
24	COc1cc(NC(=O)c2ccccn2)ccc1Cl	-0.477
25	CC(C)(CO)[C@@H](O)C(=O)NCCC(=O)O [D-Pantothenic acid]	-0.532

# Further entries follow.

row,Compound,miR-132-3p level in NGN2-iNs
1,O=c1c(O)c(-c2ccc(O)cc2)oc2cc(O)cc(O)c12 [Kaempferol],-1.3
2,CNC(=O)c1ccc(N2C(=S)N(c3ccc(C#N)c(C(F)(F)F)c3)C(=O)C2(C)C)cc1F [Enzalutamide (MDV3100)],0.207
3,CCCc1ccc(OCC(=O)N(Cc2nc(-c3cccnc3)no2)C(C)C)cc1,0.342
4,COc1cc(OC)c(NC(=O)Nc2cc(C)on2)cc1Cl,-0.547
5,NC[C@H](O)c1ccc(O)c(O)c1 [Noradrenaline bitartrate monohydrate],-1.49
6,CCN(CC)CCNC(=O)c1ccc(N)cc1 [Procainamide HCl],-0.104
7,CCn1c(N)c(C(=O)NC)c(=O)c2ccc(C#CC(C)(O)COC)nc21 (stereo not given),1.09
8,CC[C@H]1OC(=O)[C@H](C)[C@@H](O[C@H]2C[C@@](C)(OC)[C@@H](O)[C@H](C)O2)[C@H](C)[C@@H](O[C@@H]2O[C@H](C)C[C@H](N(C)C)[C@H]2O)[C@](C)(O)C[C@@H](C)CN(C)[C@H](C)[C@@H](O)[C@]1(C)O [Azithromycin],1.12
9,OCCn1cc(-c2ccc3c(c2)CC/C3=N\O)c(-c2ccncc2)n1,0.641
10,CN1CCc2nc(C(=O)N[C@@H]3C[C@@H](C(=O)N(C)C)CC[C@@H]3NC(=O)C(=O)Nc3ccc(Cl)cn3)sc2C1 [Edoxaban tosylate Monohydrate],-0.494
11,CC(C)[N+]1(C)[C@@H]2CC[C@H]1C[C@@H](OC(=O)C(CO)c1ccccc1)C2 (stereo not given in full) [Ipratropium Bromide],0.293
12,O=C(O)c1cccc(-c2noc(-c3ccccc3F)n2)c1 [Ataluren (PTC124)],-0.725
13,C[C@]12CC[C@@H]3c4ccc(O)cc4C[C@@H](CCCCCCCCC[S+]([O-])CCCC(F)(F)C(F)(F)F)[C@H]3[C@@H]1CC[C@@H]2O (stereo not given in full) [Fulvestrant],0.101
14,Clc1ccc(C2(c3ccc(-c4cn[nH]c4)cc3)CCNCC2)cc1,1.36
15,CCS(=O)(=O)c1cccc(-c2cc(C(=O)NC3CCN(C)CC3)c(C)c3[nH]c4ncc(C)cc4c23)c1,0.352
16,COC(=O)[C@H](Cc1ccccc1)NC(=O)[C@@H](N)CC(=O)O [Aspartame],-0.502
17,NC(=O)C1CCCc2c1[nH]c1ccc(Cl)cc21 (stereo not given) [Selisistat (EX 527)],-2.85
18,N#C/C(=C1/SC[C@@H](c2ccc(Cl)cc2Cl)S1)n1ccnc1 [Luliconazole],-0.416
19,CCCCOc1cc(C(=O)OCCN(CC)CC)ccc1N [Oxybuprocaine HCl],0.208
20,O=C1O[C@H]([C@@H](O)CO)C([O-])=C1O.[Na+] [Sodium ascorbate],0.623
21,Cc1ccc(S(=O)(=O)Nc2nc3ccccc3nc2Nc2ccc3nsnc3c2)cc1 [XL147 analogue],-0.169
22,NC1(Cc2ccc(Cl)cc2)CCN(c2ncnc3[nH]ccc23)CC1,-1.41
23,Cc1cc(C(C)Nc2ccccc2)c2nc(N3CCOCC3)cc(=O)n2c1 (stereo not given),-2.85
24,Clc1ccc2nsnc2c1NC1=NCCN1 [Tizanidine HCl],-0.206
25,CC(C)Oc1ccc2c(=O)c(-c3ccccc3)coc2c1 [Ipriflavone (Osteofix)],-0.656

row,Compound,miR-132-3p level in NGN2-iNs
1,CCCCOc1ccc(C(=O)Nc2ccc(F)cc2F)cc1,-1.06
2,Nc1nc(OCc2cc(Br)cs2)c2[nH]cnc2n1 [Lomeguatrib],-2.33
3,CCOc1nc2cccc(C(=O)O)c2n1Cc1ccc(-c2ccccc2-c2nnn[nH]2)cc1 [Candesartan],0.526
4,C[C@@](Cc1ccc(O)c(O)c1)(NN)C(=O)O [Carbidopa],-0.247
5,CC1CCN(CC[C@H]2CCCN2S(=O)(=O)c2cccc(O)c2)CC1,0.0781
6,Nc1ncnc2c1ncn2[C@@H]1O[C@H](CO)[C@@H](O)[C@@H]1O [Vidarabine],1.99
7,CN(C)CCC(c1ccc(Br)cc1)c1ccccn1 (stereo not given) [Brompheniramine hydrogen maleate],0.372
8,COc1ccc(Cl)cc1NC(=O)Nc1cc(C)nc2ccccc12,-0.523
9,O=C1CC[C@@H](C(=O)N2CSC[C@H]2C(=O)O)N1 [Pidotimod],-0.482
10,c1ccc(-c2ccc(C(c3ccccc3)n3ccnc3)cc2)cc1 (stereo not given) [Bifonazole],0.318
11,CCCCNc1ncc(C(=O)NCc2ccc(-n3ccnc3)cc2)c(NC2CCC(O)CC2)n1 (stereo not given),-0.41
12,CCOC(=O)[C@H]1O[C@@H]1C(=O)N[C@@H](CC(C)C)C(=O)NCCC(C)C [Aloxistatin (E64d)],0.282
13,COc1cccc(C=NCCN=Cc2cccc(OC)c2[O-])c1[O-].[Cl-].[Mn+3],-0.6
14,COC(=O)Nc1nc2cc(Sc3ccccc3)ccc2[nH]1 [Fenbendazole],1.59
15,CC(C)NC[C@@H](C(=O)N1CCN(c2ncnc3c2[C@H](C)C[C@H]3O)CC1)c1ccc(Cl)cc1 [Ipatasertib (GDC-0068)],1.03
16,CCCNC(=O)NS(=O)(=O)c1ccc(Cl)cc1 [Chlorpropamide],-2.23
17,COc1ccc(-c2nc(N3CCOCC3)c3sc(CN(C)c4ncc(C(=O)NO)cn4)cc3n2)cn1,-0.747
18,COc1cc(-c2ncn(/C=C\C(=O)OC(C)C)n2)cc(C(F)(F)F)c1,-0.816
19,Cn1ncnc1[C@H]1c2n[nH]c(=O)c3cc(F)cc(c23)N[C@@H]1c1ccc(F)cc1 [Talazoparib (BMN 673)],-1.28
20,Cc1cnc(Nc2ccc(OCCN3CCCC3)cc2)nc1Nc1cccc(S(=O)(=O)NC(C)(C)C)c1,-0.413
21,CO[C@H]1/C=C/O[C@@]2(C)Oc3c(C)c(O)c4c(O)c(c5c(nc6cc(C)ccn65)c4c3C2=O)NC(=O)/C(C)=C\C=C\[C@H](C)[C@H](O)[C@@H](C)[C@@H](O)[C@@H](C)[C@H](OC(C)=O)[C@@H]1C [Rifaximin],-0.892
22,Clc1cccc(Cl)c1NC1=NCCN1 [Clonidine HCl],-0.398
23,Cc1csc(-c2nnc(Nc3ccc(Oc4ncccc4-c4ccnc(N)n4)cc3)c3ccccc23)c1,-0.116
24,Nc1nc2c(ncn2COC(CO)CO)c(=O)[nH]1 [Ganciclovir],0.487
25,CNCCc1ccccn1 [Betahistine 2HCl],-0.62
